{"source": "paper PMC7900799", "about": "“Synthesis, antibiotic structure–activity relationships, and cellulose dissolution studies of new room-temperature ionic liquids derived from lignin” (Biotechnology for Biofuels, 2021)", "experiment": "Cellulose dissolution in ILs (gravimetric, light microscopy, FTIR)", "assay_type": "physicochemical", "conditions": "120 °C, 20 min incubation"}
{"smiles": "COc1ccc(C[N+](C)(C)C)cc1OC", "note": "[Compound 8]", "values": [{"measurement": "cellulose concentration at which cellulose precipitation was observed", "value": 4, "unit": "wt%"}]}
